Values from PubChem BioAssay AID686938 (Drosophila RNAi Screening Center, 2013).

- Screen: 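Knock-downs reducing store-operated calcium influx in Drosophila cells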 (primary screen)
- Cell system: Drosophila S2R+ cells
- Reagent: long dsRNA against Drosophila genes, about 0.25 µg dsRNA per well, roughly 10,000 cells
- Time to read-out: 5 days of knock-down before the calcium assay
- Challenge: thapsigargin (SERCA pump blocker) to empty calcium stores; entry signal taken 4 min after adding it
- Detection: 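Per-well fluo-4 fluorescence in two replicates, unnormalised, measured in resting cells and 4 min after store depletion by the SERCA blocker thapsigargin; ratio of the two present in few wells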
- Direction: calcium entry signal: higher = stronger calcium signal after store depletion; resting calcium signal: higher = higher resting calcium signal
- Hit rule: 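Hit if the duplicate-averaged plate z-score for entry over resting signal is under −3; wells with weak total dye signal (Fmax z < −2) or more than 5 off-targets removed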
- Calls: active = strongly reduced calcium entry; inactive = no strong reduction
The deposit covers about 23,000 reagents; below is a random part of those with a known target gene and a result. Of all reagents, 75 (0.33%) are marked active. 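Raw plate signals without normalisation; calls rest on plate z-scores that were not deposited; ratio present for only 364 wells.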 Names joined by + are all predicted targets of the reagent. The record does not give: the dose of the treatment.

After knock-down of Ttc26 (Tetratricopeptide repeat domain 26) [DRSC15591], the screen gave calcium entry signal, replicate 1 (fluorescence units) = 4.97e7; calcium entry signal, replicate 2 (fluorescence units) = 2.39e7; resting calcium signal, replicate 1 (fluorescence units) = 2.18e7; resting calcium signal, replicate 2 (fluorescence units) = 1.24e7; inactive.
For CG43339 [DRSC02466], the values are calcium entry signal, replicate 1 (fluorescence units) = 4.72e7; resting calcium signal, replicate 1 (fluorescence units) = 2.30e7; inactive.
For CG6712 [DRSC02981], the values are calcium entry signal, replicate 1 (fluorescence units) = 3.63e7; calcium entry signal, replicate 2 (fluorescence units) = 5.38e7; resting calcium signal, replicate 1 (fluorescence units) = 1.79e7; resting calcium signal, replicate 2 (fluorescence units) = 2.47e7; inactive.
Knock-down of CG6712 [DRSC21690] resulted in: calcium entry signal, replicate 1 (fluorescence units) = 2.81e7; calcium entry signal, replicate 2 (fluorescence units) = 2.03e7; resting calcium signal, replicate 1 (fluorescence units) = 1.67e7; resting calcium signal, replicate 2 (fluorescence units) = 1.18e7; inactive.
After knock-down of Sh3beta [DRSC11001] the results were calcium entry signal, replicate 1 (fluorescence units) = 5.80e7; calcium entry signal, replicate 2 (fluorescence units) = 4.05e7; resting calcium signal, replicate 1 (fluorescence units) = 3.80e7; resting calcium signal, replicate 2 (fluorescence units) = 1.55e7; inactive.
Sh3beta [DRSC22053] showed calcium entry signal, replicate 1 (fluorescence units) = 3.35e7; calcium entry signal, replicate 2 (fluorescence units) = 6.32e7; resting calcium signal, replicate 1 (fluorescence units) = 1.66e7; resting calcium signal, replicate 2 (fluorescence units) = 2.97e7; inactive.
With knock-down of Nadsyn (NAD synthetase) [DRSC20222] the results were calcium entry signal, replicate 1 (fluorescence units) = 3.47e7; calcium entry signal, replicate 2 (fluorescence units) = 3.71e7; resting calcium signal, replicate 1 (fluorescence units) = 1.65e7; resting calcium signal, replicate 2 (fluorescence units) = 2.04e7; inactive.
For sfl (sulfateless) [DRSC08828], the entry reads calcium entry signal, replicate 1 (fluorescence units) = 2.34e7; calcium entry signal, replicate 2 (fluorescence units) = 2.84e7; resting calcium signal, replicate 1 (fluorescence units) = 1.15e7; resting calcium signal, replicate 2 (fluorescence units) = 1.33e7; inactive.
For sfl (sulfateless) [DRSC08830] the deposit lists calcium entry signal, replicate 1 (fluorescence units) = 2.90e7; calcium entry signal, replicate 2 (fluorescence units) = 5.43e7; resting calcium signal, replicate 1 (fluorescence units) = 1.46e7; resting calcium signal, replicate 2 (fluorescence units) = 2.31e7; inactive.
For sinah (sina homologue) [DRSC09910], the values are calcium entry signal, replicate 1 (fluorescence units) = 3.29e7; calcium entry signal, replicate 2 (fluorescence units) = 5.02e7; resting calcium signal, replicate 1 (fluorescence units) = 1.72e7; resting calcium signal, replicate 2 (fluorescence units) = 1.78e7; inactive.
Against sinah (sina homologue) [DRSC22181] the deposit lists calcium entry signal, replicate 1 (fluorescence units) = 4.05e7; calcium entry signal, replicate 2 (fluorescence units) = 5.03e7; resting calcium signal, replicate 1 (fluorescence units) = 1.78e7; resting calcium signal, replicate 2 (fluorescence units) = 2.58e7; inactive.

2 entries from above in another layout:
CG43339 [DRSC02466]
- calcium entry signal, replicate 1 (fluorescence units): 4.72e7
- resting calcium signal, replicate 1 (fluorescence units): 2.30e7
- outcome: inactive

CG6712 [DRSC02981]
- calcium entry signal, replicate 1 (fluorescence units): 3.63e7
- calcium entry signal, replicate 2 (fluorescence units): 5.38e7
- resting calcium signal, replicate 1 (fluorescence units): 1.79e7
- resting calcium signal, replicate 2 (fluorescence units): 2.47e7
- outcome: inactive

More records follow:
For Acbp4 (Acyl-CoA binding protein 4) [DRSC11023], the values are calcium entry signal, replicate 1 (fluorescence units) = 1.96e7; calcium entry signal, replicate 2 (fluorescence units) = 5.74e7; resting calcium signal, replicate 1 (fluorescence units) = 1.00e7; resting calcium signal, replicate 2 (fluorescence units) = 2.21e7; inactive.
Silencing of ND-MNLL (NADH dehydrogenase (ubiquinone) MNLL subunit) [DRSC18159] gave: calcium entry signal, replicate 1 (fluorescence units) = 2.25e7; calcium entry signal, replicate 2 (fluorescence units) = 4.15e7; resting calcium signal, replicate 1 (fluorescence units) = 1.23e7; resting calcium signal, replicate 2 (fluorescence units) = 1.88e7; inactive.
Silencing of CG31091 [DRSC15933] came out at: calcium entry signal, replicate 1 (fluorescence units) = 4.38e7; calcium entry signal, replicate 2 (fluorescence units) = 6.04e7; resting calcium signal, replicate 1 (fluorescence units) = 2.13e7; resting calcium signal, replicate 2 (fluorescence units) = 2.48e7; inactive.
After knock-down of CG5853 [DRSC01103], the screen gave calcium entry signal, replicate 1 (fluorescence units) = 4.17e7; calcium entry signal, replicate 2 (fluorescence units) = 3.95e7; resting calcium signal, replicate 1 (fluorescence units) = 2.12e7; resting calcium signal, replicate 2 (fluorescence units) = 1.84e7; inactive.
After knock-down of CG5853 [DRSC02906], the record shows calcium entry signal, replicate 1 (fluorescence units) = 6.13e7; resting calcium signal, replicate 1 (fluorescence units) = 2.72e7; inactive.
For eIF3f2 (eukaryotic translation initiation factor 3 subunit f2) [DRSC04903], the entry reads calcium entry signal, replicate 1 (fluorescence units) = 3.87e7; calcium entry signal, replicate 2 (fluorescence units) = 4.33e7; resting calcium signal, replicate 1 (fluorescence units) = 1.82e7; resting calcium signal, replicate 2 (fluorescence units) = 1.97e7; inactive.
RpL13A (Ribosomal protein L13A) [DRSC12265] showed calcium entry signal, replicate 1 (fluorescence units) = 1.67e7; calcium entry signal, replicate 2 (fluorescence units) = 1.92e7; resting calcium signal, replicate 1 (fluorescence units) = 1.08e7; resting calcium signal, replicate 2 (fluorescence units) = 1.04e7; inactive.
cm + Inx7 [DRSC18753] scored calcium entry signal, replicate 1 (fluorescence units) = 3.98e7; calcium entry signal, replicate 2 (fluorescence units) = 4.28e7; resting calcium signal, replicate 1 (fluorescence units) = 1.95e7; resting calcium signal, replicate 2 (fluorescence units) = 1.98e7; inactive.
Depletion of DCTN2-p50 (Dynactin 2, p50 subunit) [DRSC07132] gave: calcium entry signal, replicate 1 (fluorescence units) = 4.27e7; calcium entry signal, replicate 2 (fluorescence units) = 3.93e7; resting calcium signal, replicate 1 (fluorescence units) = 2.00e7; resting calcium signal, replicate 2 (fluorescence units) = 1.95e7; inactive.
ckd (cracked) [DRSC08418] scored calcium entry signal, replicate 1 (fluorescence units) = 2.49e7; calcium entry signal, replicate 2 (fluorescence units) = 2.81e7; resting calcium signal, replicate 1 (fluorescence units) = 1.29e7; resting calcium signal, replicate 2 (fluorescence units) = 1.33e7; inactive.
